The list shows a part of the results.
Key:
Test in all cases: log2 fold change, soluble protein after heating vs DMSO (PISA); higher = thermal stabilisation; K562 lysate, 10 uM; active = over 0.2 and 3.5 SD of the protein, either way, in both replicates (recomputed)
lapatinib = compound: CS(=O)(=O)CCNCc1ccc(-c2ccc3ncnc(Nc4ccc(OCc5cccc(F)c5)c(Cl)c4)c3c2)o1 [lapatinib]
Outline: (§1)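 Quantification was by TMTpro 16plex LC-MS/MS with equalised channel sums, applied to the supernatant after 21,000xg for 90 min. Samples were crude K562 extract at 1 mg/mL protein in PBS pH 7.4 with 1 mM MgCl2, treated with 10 μM compound for 30 min, heated for 3 min across 48°C-58°C, pooled and brought to 0.5% NP-40 at 4°C. Values are log-two fold changes in thermal stability relative to solvent controls, from duplicates.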

The chains behind the UniProt entries cited, without tags or fusion partners. Where a name states a change or a piece, a line headed by the entry shows the natural chain unless it says otherwise.
UniProt O60220: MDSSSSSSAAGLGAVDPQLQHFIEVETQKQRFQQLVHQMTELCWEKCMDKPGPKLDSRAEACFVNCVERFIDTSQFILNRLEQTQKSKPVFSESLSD
UniProt Q8WUY1: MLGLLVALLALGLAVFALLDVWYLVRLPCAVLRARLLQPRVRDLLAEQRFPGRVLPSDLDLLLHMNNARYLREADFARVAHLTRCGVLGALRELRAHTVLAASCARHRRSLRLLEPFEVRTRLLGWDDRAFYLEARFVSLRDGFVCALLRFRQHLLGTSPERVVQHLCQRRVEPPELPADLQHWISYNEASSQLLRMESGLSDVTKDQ
UniProt P29401: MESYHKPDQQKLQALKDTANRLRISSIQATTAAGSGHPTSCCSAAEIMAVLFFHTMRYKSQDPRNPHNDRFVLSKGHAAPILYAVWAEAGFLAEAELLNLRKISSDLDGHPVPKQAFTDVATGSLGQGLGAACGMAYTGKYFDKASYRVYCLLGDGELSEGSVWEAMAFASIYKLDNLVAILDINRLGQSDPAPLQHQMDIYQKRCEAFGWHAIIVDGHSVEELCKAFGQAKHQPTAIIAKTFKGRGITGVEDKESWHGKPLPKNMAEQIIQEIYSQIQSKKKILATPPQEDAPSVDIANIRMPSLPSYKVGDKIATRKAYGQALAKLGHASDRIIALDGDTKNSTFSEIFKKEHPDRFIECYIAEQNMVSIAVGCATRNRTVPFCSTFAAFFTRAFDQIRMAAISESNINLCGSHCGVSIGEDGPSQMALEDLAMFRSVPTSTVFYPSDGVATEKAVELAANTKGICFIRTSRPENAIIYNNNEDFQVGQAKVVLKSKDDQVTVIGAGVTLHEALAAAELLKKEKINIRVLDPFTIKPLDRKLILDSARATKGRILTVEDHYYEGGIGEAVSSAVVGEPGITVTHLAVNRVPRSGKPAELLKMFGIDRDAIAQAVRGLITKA
UniProt Q92544: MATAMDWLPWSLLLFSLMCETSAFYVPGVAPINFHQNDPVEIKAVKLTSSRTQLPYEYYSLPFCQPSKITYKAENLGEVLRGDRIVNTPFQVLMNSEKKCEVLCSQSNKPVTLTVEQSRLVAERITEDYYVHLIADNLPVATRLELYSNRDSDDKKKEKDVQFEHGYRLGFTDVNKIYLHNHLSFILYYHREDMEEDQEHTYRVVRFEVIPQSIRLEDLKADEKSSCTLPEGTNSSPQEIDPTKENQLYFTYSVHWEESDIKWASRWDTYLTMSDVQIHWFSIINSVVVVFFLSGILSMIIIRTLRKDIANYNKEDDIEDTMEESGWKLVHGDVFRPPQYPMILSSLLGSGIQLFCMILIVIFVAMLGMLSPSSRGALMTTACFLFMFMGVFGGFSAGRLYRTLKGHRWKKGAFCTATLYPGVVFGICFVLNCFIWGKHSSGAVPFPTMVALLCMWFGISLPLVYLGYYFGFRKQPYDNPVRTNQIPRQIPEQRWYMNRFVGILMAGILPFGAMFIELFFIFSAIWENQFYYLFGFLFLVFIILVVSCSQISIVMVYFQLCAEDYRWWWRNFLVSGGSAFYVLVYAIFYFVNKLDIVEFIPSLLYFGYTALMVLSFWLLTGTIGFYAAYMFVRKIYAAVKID

crizotinib = compound: C[C@@H](Oc1cc(-c2cnn(C3CCNCC3)c2)cnc1N)c1c(Cl)ccc(F)c1Cl [crizotinib]
Outline: as §1

[1] = compound: C[C@H](C1=CC=C(C=C1)C(=O)NC2=C3C=CNC3=NC=C2)N
Outline: as §1

duvelisib = compound: C[C@H](Nc1ncnc2nc[nH]c12)c1cc2cccc(Cl)c2c(=O)n1-c1ccccc1 [duvelisib]
Outline: as §1

gandotinib = compound: Cc1cc(Nc2cc(CN3CCOCC3)c3nc(C)c(Cc4ccc(Cl)cc4F)n3n2)n[nH]1 [gandotinib]
Outline: as §1

doramapimod = compound: Cc1ccc(-n2nc(C(C)(C)C)cc2NC(=O)Nc2ccc(OCCN3CCOCC3)c3ccccc23)cc1 [doramapimod]
Outline: as §1

[2] = compound: Cc1cccc(CC(=O)N2CCc3c2ccc(-c2cn(C)c4ncnc(N)c24)c3F)n1
Outline: as §1

nilotinib = compound: Cc1cn(-c2cc(NC(=O)c3ccc(C)c(Nc4nccc(-c5cccnc5)n4)c3)cc(C(F)(F)F)c2)cn1 [nilotinib]
Outline: as §1

[3] = compound: Cc1nc(Nc2n[nH]c3c2CN(C(=O)N[C@H](CN(C)C)c2ccccc2)C3(C)C)c2sccc2n1
Outline: as §1

dasatinib = compound: Cc1nc(Nc2ncc(C(=O)Nc3c(C)cccc3Cl)s2)cc(N2CCN(CCO)CC2)n1 [dasatinib]
Outline: as §1

[4] = compound: Cc1ncc(-c2ccnc(Nc3ccc(S(C)(=O)=O)cc3)n2)n1C(C)C
Outline: as §1

[5] = compound: Cn1cc(-c2ccc3c(c2)CCN3C(=O)Cc2cccc(C(F)(F)F)c2)c2c(N)ncnc21
Outline: as §1

quisinostat = compound: Cn1cc(CNCC2CCN(c3ncc(C(=O)NO)cn3)CC2)c2ccccc21 [quisinostat]
Outline: as §1

tipifarnib = compound: Cn1cncc1[C@@](N)(c1ccc(Cl)cc1)c1ccc2c(c1)c(-c1cccc(Cl)c1)cc(=O)n2C [tipifarnib]
Outline: as §1

[6] = compound: NC(=O)Nc1cc(-c2cccc(F)c2)sc1C(=O)N[C@H]1CCCNC1
Outline: as §1

[7] = compound: NC(=O)c1cnc(N[C@@H]2CCCC[C@@H]2N)nc1Nc1cccc(-n2nccn2)c1
Outline: as §1

[8] = compound: NC1(c2ccc(-c3nc4ccn5c(=O)[nH]nc5c4cc3-c3ccccc3)cc2)CCC1
Outline: as §1

pictilisib = compound: CS(=O)(=O)N1CCN(Cc2cc3nc(-c4cccc5[nH]ncc45)nc(N4CCOCC4)c3s2)CC1 [pictilisib]
Outline: as §1

tozasertib = compound: Cc1cc(Nc2cc(N3CCN(C)CC3)nc(Sc3ccc(NC(=O)C4CC4)cc3)n2)n[nH]1 [tozasertib]
Outline: as §1

bafetinib = compound: Cc1ccc(NC(=O)c2ccc(CN3CC[C@H](N(C)C)C3)c(C(F)(F)F)c2)cc1Nc1nccc(-c2cncnc2)n1 [bafetinib]
Outline: as §1

Measured: log2 fold change

TKT, A0A0B4J1R6
inactive: lapatinib -0.095 | crizotinib -0.228 | [1] -0.535 | duvelisib 0.207 | gandotinib 0.301 | doramapimod 0.274 | [2] 0.203 | nilotinib -0.035 | [3] -0.016 | dasatinib -0.18 | [4] -0.157 | [5] -0.058 | quisinostat -0.512 | tipifarnib 0.006 | [6] -0.023 | [7] -0.017 | [8] -0.082

TIMM8A (UniProt O60220)
inactive: lapatinib -0.035 | pictilisib -0.052 | crizotinib -0.033 | [1] 0.126 | duvelisib 0.109 | gandotinib -0.188 | tozasertib 0.171 | doramapimod -0.007 | bafetinib -0.036 | [2] -0.152 | nilotinib 0.086 | [3] -0.002 | dasatinib 0.015 | [4] 0.192 | [5] -0.04 | quisinostat -0.049 | tipifarnib 0.026 | [6] -0.001 | [7] 0.046 | [8] -0.021

THEM6 (UniProt Q8WUY1)
inactive: lapatinib 0.016 | pictilisib -0.007 | crizotinib 0.048 | [1] 0.003 | duvelisib 0.085 | gandotinib -0.003 | tozasertib -0.07 | doramapimod 0.096 | bafetinib -0.046 | [2] -0.035 | nilotinib 0.054 | [3] 0.032 | dasatinib -0.056 | [4] -0.055 | [5] -0.078 | quisinostat 0.077 | tipifarnib 0.025 | [6] -0.003 | [7] 0.001 | [8] 0.082

TKT isoform 2 (UniProt P29401)
inactive: lapatinib 0.003 | pictilisib 0.006 | crizotinib 0.042 | [1] -0.039 | duvelisib -0.022 | gandotinib 0.03 | tozasertib 0.006 | doramapimod -0.009 | bafetinib 0.011 | [2] -0.009 | nilotinib 0.001 | [3] -0.003 | dasatinib 0.006 | [4] 0.011 | [5] 0.006 | quisinostat 0.018 | tipifarnib 0.027 | [6] -0.022 | [7] -0.016 | [8] 0

TM9SF4 (UniProt Q92544)
inactive: lapatinib -0.005 | pictilisib 0.028 | crizotinib -0.031 | [1] -0.076 | duvelisib -0.032 | gandotinib 0.055 | tozasertib 0.049 | doramapimod 0.019 | bafetinib -0.055 | [2] 0.143 | nilotinib -0.016 | [3] -0.01 | dasatinib -0.01 | [4] 0.008 | [5] 0.012 | quisinostat 0.038 | tipifarnib -0.065 | [6] -0.025 | [7] 0.039 | [8] -0.012
